This note sets out measurements from paper PMC7819943, “Rice protein-binding microarrays: a tool to detect cis-acting elements near promoter regions in rice”.

This is one part of the list.

In this assay the target is T1, OsSMF1 (Oryza sativa, UniProt Q6ZLB0 1-436).
T1 sequence: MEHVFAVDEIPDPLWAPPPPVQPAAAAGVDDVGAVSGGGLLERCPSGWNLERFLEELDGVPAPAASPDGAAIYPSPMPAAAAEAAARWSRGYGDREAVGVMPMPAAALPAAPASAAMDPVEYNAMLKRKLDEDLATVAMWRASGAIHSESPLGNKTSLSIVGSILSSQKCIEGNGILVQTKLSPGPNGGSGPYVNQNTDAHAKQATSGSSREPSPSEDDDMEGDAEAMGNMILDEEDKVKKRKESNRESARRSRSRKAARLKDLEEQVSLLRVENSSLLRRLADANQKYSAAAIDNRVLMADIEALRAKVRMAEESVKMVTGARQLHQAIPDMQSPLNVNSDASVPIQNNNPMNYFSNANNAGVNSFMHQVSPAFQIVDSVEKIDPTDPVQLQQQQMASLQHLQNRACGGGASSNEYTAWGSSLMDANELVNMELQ
The assay is described as follows: protein-binding microarray (RPBM); PBS, 2% BSA, 51.3 ng/ul salmon testes DNA, 50 uM zinc acetate, 200 nM TF, 25 C, 1 h; high values mean tight binding. Particulars: protein: recombinant; tags: N-terminal polyhistidine and DsRed monomer fusion (pET32a); chain copies: 2; label: CyDye5-dUTP incorporated in the synthesized complementary strand; 3' TTTTT single-stranded linker to array surface; dsDNA, one strand shown. A digest of the protocol: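 The binding signal for each feature is its fluorescence intensity in arbitrary units. An Axon 4000B scanner was used to read a custom Agilent array that had been made double-stranded with Cy5-dUTP primer extension, blocked with 2% BSA, incubated at 25 °C for 1 h with 200 nM protein in PBS, 2% BSA, salmon testes DNA and 50 µM zinc acetate, and washed. The protein was an N-terminal polyhistidine–DsRed transcription factor fusion from E. coli BL21-CodonPlus, purified on Ni–NTA.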
Turning to “CCCTTAACTTGATCCCTTGGTAGTATTATTTCCAGTTTTGCGGAGTCACCTAGTGCAG”, the binding signal is 3820 fluorescence intensity (a.u.). For “CGTAGCTTGACGTGGCGCTCACGTGGCAACTATATCTCAGCGGAGTCACCTAGTGCAG”, the binding signal is 32700 fluorescence intensity (a.u.).

On to “GTTTTAGAAGCATATGACACGAATAATTTGGTGACGATCTCGGAGTCACCTAGTGCAG”, for which the binding signal is 3180 fluorescence intensity (a.u.). Then “CATCTCTCGCTCGCTCGCTCGCTCGCCGCTACGCCTCACGCGGAGTCACCTAGTGCAG”, with 3270 fluorescence intensity (a.u.); and “TTAGGTAAGATTACAATGACAGCTAGAAGATTCCCCGCGCCGGAGTCACCTAGTGCAG”, with 3140 fluorescence intensity (a.u.); and “TTAGTTCACCCATCTTGCCAATGCTGTCATCGCCACAGCTCGGAGTCACCTAGTGCAG”, with 3310 fluorescence intensity (a.u.). In the case of “ACGCTATTCACTACTTCATGTGACGCATGCATAGAATGATCGGAGTCACCTAGTGCAG” it was 3720 fluorescence intensity (a.u.); in that of “GGATACTAATTAGATTGGAAGTATATTTACACTCAGTCACCGGAGTCACCTAGTGCAG”, 3180 fluorescence intensity (a.u.). Then “GGCGGCCAGATCCGGGGCTGGGGAGGCGACGGCGGCGGGGCGGAGTCACCTAGTGCAG”, with 4020 fluorescence intensity (a.u.); and “GTGTGAGTCGAGTCGGTGCTGTGCTGGAGTGCTGGCAACGCGGAGTCACCTAGTGCAG”, with 3870 fluorescence intensity (a.u.). Take “GTACCATGGGTTTGCGTGAACCCGCACACGAACCACGTGGCGGAGTCACCTAGTGCAG”: the binding signal is 9170 fluorescence intensity (a.u.). Then “TTTCTGACATGTCACTTGTTTATGTATTAGTTGCATTGTACGGAGTCACCTAGTGCAG”, with 5270 fluorescence intensity (a.u.); and “CTTGGCACCATTTCACATCAGTAATTCCCCATCACACGCACGGAGTCACCTAGTGCAG”, with 25600 fluorescence intensity (a.u.); and “GACGAATCTTTGCTGAGTAGGAGGCAGCAACCACTATGAGCGGAGTCACCTAGTGCAG”, with 4660 fluorescence intensity (a.u.). Turning to “TTGAAGCAAATTTTAAGATATCATTTTATCCTGGCAAGGTCGGAGTCACCTAGTGCAG”, the binding signal is 3270 fluorescence intensity (a.u.).

For “GCCGCGCCATGACGACGGGATGTCGCCTAGGTGGCCATCACGGAGTCACCTAGTGCAG”, the binding signal is 3990 fluorescence intensity (a.u.). Then “CCCTACACATCTCTCTTCCACCTAGTTTACTTCGACCTGGCGGAGTCACCTAGTGCAG”, with 3560 fluorescence intensity (a.u.); and “CACCGCACCACCACCACCACGCACGCAAGCACGCCTCTCGCGGAGTCACCTAGTGCAG”, with 5320 fluorescence intensity (a.u.); and “CAGATAGGCTAATAGGCATCGGAGGAGCGGGAGGACCTCTCGGAGTCACCTAGTGCAG”, with 37400 fluorescence intensity (a.u.). In the case of “TCTAAATTACTGTTTAGTCGATGACTCGATGTAATACATTCGGAGTCACCTAGTGCAG” it was 4400 fluorescence intensity (a.u.); in that of “CCACGCCTCCATCCCTCTTCGTCGGCGTCTCCGATGGATGCGGAGTCACCTAGTGCAG”, 3330 fluorescence intensity (a.u.); in that of “AGCACGCCGCAGCACTGCATCAGCACGGCCGCCACCACCACGGAGTCACCTAGTGCAG”, 4060 fluorescence intensity (a.u.).

On to “CCCTGCTGTGACTGAGCTACATACTACCAGAGCTAAAGCACGGAGTCACCTAGTGCAG”, for which the binding signal was 34100 fluorescence intensity (a.u.).

For “TCCAGCTGCTGCATCCACCTCACTGCCGTCGCCGCCGCCGCGGAGTCACCTAGTGCAG”, the binding signal is 3310 fluorescence intensity (a.u.). “AGCTCCATGGTGGTAAAACCATTGCATATGCGTTGTCCTCCGGAGTCACCTAGTGCAG”: the binding signal was 4230 fluorescence intensity (a.u.). Then “GCCACCCGCCTCGCGGAGTCACGGGCTCGAGCTCCACCACCGGAGTCACCTAGTGCAG”, with 4510 fluorescence intensity (a.u.); and “CATCGAGGGCAGCCACAAGCTGGAGCACACCGAGCAGTTCCGGAGTCACCTAGTGCAG”, with 24000 fluorescence intensity (a.u.); and “GGTATGCATAGCTGTGGCTAGGGTGCAAGCGAGGATGGTACGGAGTCACCTAGTGCAG”, with 3610 fluorescence intensity (a.u.). Then “GTCCTACATGGCTGCTGAGTCAGCGTGGGACCCATGTGGACGGAGTCACCTAGTGCAG”, with 18000 fluorescence intensity (a.u.); and “AACACAGAAGTAGGGTATTACGCTCCACAGCGGCCCGAACCGGAGTCACCTAGTGCAG”, with 3880 fluorescence intensity (a.u.); and “CAAATTATGACACAGTTGATATTCCTTGTTTGAAAATTGTCGGAGTCACCTAGTGCAG”, with 3470 fluorescence intensity (a.u.). In the case of “AAACCACCCATTACGTATATGCTTAACTGAATCAACATGTCGGAGTCACCTAGTGCAG” it was 3390 fluorescence intensity (a.u.); in that of “GTGTGTGTATGACAGGTGGGACCATATATTAATAGTGTAGCGGAGTCACCTAGTGCAG”, 3480 fluorescence intensity (a.u.). As for “AAGTTTGATTTTGAACACGGTGGCAGCAAAGTGACACGAACGGAGTCACCTAGTGCAG”, the binding signal was 4600 fluorescence intensity (a.u.). In the case of “ACGGCGGATGCTGGATATCTTACACGTAGACTTGTTGAAGCGGAGTCACCTAGTGCAG” it was 9320 fluorescence intensity (a.u.). Then “CATATTTATCCGATGAGATCAATCGACAAGTCAGTAACCACGGAGTCACCTAGTGCAG”, with 3890 fluorescence intensity (a.u.); and “AGAGAAGTTCAGTCTCTGAATGTGTGTTGCCAATTGCTGACGGAGTCACCTAGTGCAG”, with 3190 fluorescence intensity (a.u.).

Regarding “CAGATCTCGCCTTCCGATCACGCCGCGCGATGCGGGCCGTCGGAGTCACCTAGTGCAG”, the binding signal is 14500 fluorescence intensity (a.u.). Then “GAGAGCGAACGGCCGTCTGCCACGTCATTTTCGCCGCCCTCGGAGTCACCTAGTGCAG”, with 17000 fluorescence intensity (a.u.). In the case of “GCGCCGCACGGTCGTCATCATCACTGGGGTCGTCTTCGCACGGAGTCACCTAGTGCAG”, the binding signal is 4070 fluorescence intensity (a.u.). Take “ACACGCACACATGCAGATATGCTGCCTGCCTGCCTCGTCACGGAGTCACCTAGTGCAG”: the binding signal was 4200 fluorescence intensity (a.u.). Then “GTATTCAGCTGCATGAGGATCATCACAAGATTTGGAGGACCGGAGTCACCTAGTGCAG”, with 3530 fluorescence intensity (a.u.).
